These are yes or no findings as the source states them, for the method shown. Binding seen in cells or lysates may run through a third protein. Some entries that bind do so weakly or less than the wild type.
Key:
[1] = target: Anxa2 (mouse (endogenous in cardiomyocytes)) (UniProt P07356); assay: co-IP; mutual co-IP of endogenous proteins with anti-GRP94, anti-Anxa2 or rabbit IgG control antibody on Protein A/G magnetic beads from cardiomyocyte lysate, under hypoxia (12 hours) or tunicamycin treatment; immunoblot
[2] = target: glucose-regulated protein 94 (GRP94) (mouse (endogenous in cardiomyocytes)) (UniProt P08113); assay: as above

Chains of the proteins cited; added tags and fusions are not shown. Residues count along the entry.
UniProt P07356: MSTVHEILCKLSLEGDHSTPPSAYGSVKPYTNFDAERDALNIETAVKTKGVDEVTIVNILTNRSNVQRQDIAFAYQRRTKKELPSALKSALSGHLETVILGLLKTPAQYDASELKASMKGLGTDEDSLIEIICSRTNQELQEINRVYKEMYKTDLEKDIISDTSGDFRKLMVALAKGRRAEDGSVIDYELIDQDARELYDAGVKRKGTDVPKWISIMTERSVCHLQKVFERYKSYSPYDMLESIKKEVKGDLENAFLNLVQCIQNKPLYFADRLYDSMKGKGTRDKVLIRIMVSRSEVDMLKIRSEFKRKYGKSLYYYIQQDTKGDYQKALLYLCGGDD
UniProt P08113, residues 22-802: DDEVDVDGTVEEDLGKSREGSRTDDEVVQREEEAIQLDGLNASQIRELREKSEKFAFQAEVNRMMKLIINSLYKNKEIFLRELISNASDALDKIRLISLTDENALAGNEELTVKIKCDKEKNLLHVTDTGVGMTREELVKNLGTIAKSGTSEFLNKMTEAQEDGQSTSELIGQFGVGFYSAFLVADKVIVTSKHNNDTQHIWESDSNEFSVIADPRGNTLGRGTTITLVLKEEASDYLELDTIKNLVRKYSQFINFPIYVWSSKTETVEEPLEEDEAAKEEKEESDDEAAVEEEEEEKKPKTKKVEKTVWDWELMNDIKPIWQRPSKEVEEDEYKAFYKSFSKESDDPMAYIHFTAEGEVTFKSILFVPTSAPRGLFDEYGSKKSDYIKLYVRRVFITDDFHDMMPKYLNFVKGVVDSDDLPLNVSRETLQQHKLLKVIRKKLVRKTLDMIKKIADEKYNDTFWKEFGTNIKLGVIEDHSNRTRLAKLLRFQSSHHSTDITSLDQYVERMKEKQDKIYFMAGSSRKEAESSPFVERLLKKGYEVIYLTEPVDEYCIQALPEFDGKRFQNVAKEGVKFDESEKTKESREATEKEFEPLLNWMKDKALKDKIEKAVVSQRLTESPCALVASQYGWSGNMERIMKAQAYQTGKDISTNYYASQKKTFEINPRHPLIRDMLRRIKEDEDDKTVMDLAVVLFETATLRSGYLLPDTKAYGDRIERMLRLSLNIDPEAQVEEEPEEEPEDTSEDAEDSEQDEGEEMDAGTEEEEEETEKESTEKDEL

Substance	binding [1]	binding [2]
glucose-regulated protein 94 (GRP94) (from UniProt P08113 22-802)	binds	
Anxa2 (from UniProt P07356 1-339)		binds

From publication PMC12513489
